Key:
Details in all cases: 10 min
[1] = one-step extraction from weak acid sulphate solution, distribution of Ga
[2] = one-step extraction from weak acid sulphate solution, distribution of In
[3] = one-step extraction from weak acid sulphate solution, distribution of Ge
[4] = Example 4, sodium sulphate solution, O/A=1/3, 50° C.

SMILES	[Ga]A, Ga concentration in the aqueous phase ([1]; Example 1, O/A=1/3, 50° C.) [g/L]	[Ga]O, Ga concentration in the organic phase ([1]; Example 1, O/A=1/3, 50° C.) [g/L]	[Ga]A, Ga concentration in the aqueous phase ([1]; Example 2, O/A=1/3, 50° C.) [g/L]	[Ga]O, Ga concentration in the organic phase ([1]; Example 2, O/A=1/3, 50° C.) [g/L]	[Ga]A, Ga concentration in the aqueous phase [1, 4] [g/L]	[Ga]O, Ga concentration in the organic phase [1, 4] [g/L]	[In]A, In concentration in the aqueous phase ([2]; Example 1, O/A=1/3, 50° C.) [g/L]	[In]O, In concentration in the organic phase ([2]; Example 1, O/A=1/3, 50° C.) [g/L]	[In]A, In concentration in the aqueous phase ([2]; Example 2, O/A=1/3, 50° C.) [g/L]	[In]O, In concentration in the organic phase ([2]; Example 2, O/A=1/3, 50° C.) [g/L]	[In]A, In concentration in the aqueous phase [2, 4] [g/L]	[In]O, In concentration in the organic phase [2, 4] [g/L]	[Ge]A, Ge concentration in the aqueous phase ([3]; Example 1, O/A=1/3, 50° C.) [g/L]	[Ge]O, Ge concentration in the organic phase ([3]; Example 1, O/A=1/3, 50° C.) [g/L]	[Ge]A, Ge concentration in the aqueous phase ([3]; Example 2, O/A=1/3, 50° C.) [g/L]	[Ge]O, Ge concentration in the organic phase ([3]; Example 2, O/A=1/3, 50° C.) [g/L]	[Ge]A, Ge concentration in the aqueous phase [3, 4] [g/L]	[Ge]O, Ge concentration in the organic phase [3, 4] [g/L]
CCCCC(CC)COP(=O)(O)CC(CC)CCCC (stereo not drawn) [PC-88 A, mono-(2-ethyl)-hexyl-(2-ethyl)-hexyl-phosphonic acid-ester]	0.060	0.030	0.380	0	0.120	0	0.064	0.648	0.070	0.390	0.140	0.789	0.026	0	0.032	0	0.109	0
CC(CC(C)(C)C)CP(=O)(O)CC(C)CC(C)(C)C (stereo not drawn) [Cyanex 272, bis (2,4,4-trimethyl)-pentylphosphinic acid]	0.070	0					0.240	0.160					0.028	0				
CCCCC(CC)COP(=O)(O)OCC(CC)CCCC (stereo not drawn) [D2EHPA, di-(2-ethyl)-hexyl-phosphoric acid, reference compound]	0.070	0					0.040	0.720					0.029	0				

— US5277882A, “Process for recovering germanium” (Union Miniere s.a., priority 1991, dated 1994)
